Results as given in patent US20160024194A1.

B1: 6E7 monoclonal antibody produced by hybridoma PTA-120972 (antibody, V domains shown)
VH: QVQLQQPGSVLVRPGASVKLSCKASGYTFTSYWMHWAKQRPGQGLEWIGQIHPISGNIKYNEKFKGKATLTVDTSPSTAYVDLSSLTSEDSAVYYCARDTYYTNNDAVDYWGQGTSVTVSS
VL: DIVMTQSHKFMSTSVGDRVSITCKASQDVGSVVAWYQQKPGQSPKLLIYWASTRHTGIPNRFTGRGSGTDFTLTITNVQSEDLADYFCQQYSNYPLTFGAGTKLELK
B2: 7A8 monoclonal antibody produced by hybridoma PTA-120971 (antibody, V domains shown)
VH: QVQLRESEPGLVAPSRSLSITCTVSGFSLTSYAVSWVRQPPGKGLEWLGVIWTGGGTNYNSALKSRLSISKDNSKNQVFLKMNSLQTDDTARYYCARYSNLYYAMDYWGQGTSVTVSS
VL: DIVMTQSQKFMSTSVGERVSITCKASQNVGTNVAWYQQKAGQSLELLIYGASNRHTGVPDRFTGSGSGTDFTLTITNVQSEDMTNYFCEQYRSYPLTFGGGSKLEIK
B3: 7A2 monoclonal antibody produced by hybridoma PTA-120970 (antibody, V domains shown)
VH: B2 VH with R16Q, K71R
VL: B2 VL

Target: human fibrin fragment E (FFE) (human)
Experiment: ELISA

| Binder | binding |
| --- | --- |
| B1 | binds |
| B2 | binds |
| B3 | binds |

Target: human fibrin fragment E (FFE) (human)
Experiment: ELISA of parental hybridoma clone supernatant, on FFE

| Binder | binding |
| --- | --- |
| B1 | binds |
| B2 | binds |
| B3 | binds |

Changes are numbered by the printed parent chain. These are yes or no findings as the source states them, for the method shown. Binding calls can cover weak binding; strength is not graded here.
